No constants are given. Whether binding was seen depends on the method and setting. Binding seen in cells or lysates may run through a third protein. These calls come from enrichment with a bait or labelling near it, and not all partners need be listed. For some of these results: No binding means not detected with the bait.
B1: F-box/WD repeat-containing protein 8 (Fbxw8), endogenous, mouse (protein, UniProt Q8BIA4 1-598)
chain: MDDHNLEEFRRHWQEELAQSQALRRRRRLEAGERRSPRRPEAGARGEPASGYLGLAQGLLEGAGRPPAPRPGRGGDRKDTSSRSRSPPDRDATEPEPLVDQLIRDLNELDDVPFFDVRLPYELAINIFQYLNRRELGLCAQVSKTWKVIAEDEVLWYRLCRQEGHLPHSRFSDYTCWKLILQECLAKEHTLRANWKNRKGAVSELEHVPDAVLCDVRSHDGVVIAGYTSGDVRVWDTRTWDYVAPFLESESEEEDPGMQPYVSFVRINSSLAVAAYEDGILNIWDLRTGRFPIFRFEHDARIQALALSQEKPIVATASAFDVVMLYPNEEGHWHVASEFEVQKLVDYLEIVPNTGRYPVAIATAGDLVYLLKADDSARTLHYVYGQPATCLDVSASQVAFGVKSLGWVYEGNKILVYSLEAERCLSKLGNALGDFTCVNIRDSPPNLMVSGNMDRRVRIHDLRSDKIALSLSAHQLGVSAVQMDDWKVVSGGEEGLVSVWDYRMNQKLWEVHSRHPVRYLSFNSHSLITANVPYEKVLRNSDLDNFACHRRHRGLIHAYEFAVDQLAFQSPLPVCRLPRDIMAGYSYDLALSFPHDSI

Chains of the proteins cited; added tags and fusions are not shown. Lines headed by an entry give the natural chain unless they say otherwise; changes in a name come on top. A line that says so, or that is headed by a name, gives the form on record, which may keep a tag or linker.
nuclear myosin 1c (NM1), endogenous, mouse (mouse (endogenous in MEFs)) (Q9WTI7, form named): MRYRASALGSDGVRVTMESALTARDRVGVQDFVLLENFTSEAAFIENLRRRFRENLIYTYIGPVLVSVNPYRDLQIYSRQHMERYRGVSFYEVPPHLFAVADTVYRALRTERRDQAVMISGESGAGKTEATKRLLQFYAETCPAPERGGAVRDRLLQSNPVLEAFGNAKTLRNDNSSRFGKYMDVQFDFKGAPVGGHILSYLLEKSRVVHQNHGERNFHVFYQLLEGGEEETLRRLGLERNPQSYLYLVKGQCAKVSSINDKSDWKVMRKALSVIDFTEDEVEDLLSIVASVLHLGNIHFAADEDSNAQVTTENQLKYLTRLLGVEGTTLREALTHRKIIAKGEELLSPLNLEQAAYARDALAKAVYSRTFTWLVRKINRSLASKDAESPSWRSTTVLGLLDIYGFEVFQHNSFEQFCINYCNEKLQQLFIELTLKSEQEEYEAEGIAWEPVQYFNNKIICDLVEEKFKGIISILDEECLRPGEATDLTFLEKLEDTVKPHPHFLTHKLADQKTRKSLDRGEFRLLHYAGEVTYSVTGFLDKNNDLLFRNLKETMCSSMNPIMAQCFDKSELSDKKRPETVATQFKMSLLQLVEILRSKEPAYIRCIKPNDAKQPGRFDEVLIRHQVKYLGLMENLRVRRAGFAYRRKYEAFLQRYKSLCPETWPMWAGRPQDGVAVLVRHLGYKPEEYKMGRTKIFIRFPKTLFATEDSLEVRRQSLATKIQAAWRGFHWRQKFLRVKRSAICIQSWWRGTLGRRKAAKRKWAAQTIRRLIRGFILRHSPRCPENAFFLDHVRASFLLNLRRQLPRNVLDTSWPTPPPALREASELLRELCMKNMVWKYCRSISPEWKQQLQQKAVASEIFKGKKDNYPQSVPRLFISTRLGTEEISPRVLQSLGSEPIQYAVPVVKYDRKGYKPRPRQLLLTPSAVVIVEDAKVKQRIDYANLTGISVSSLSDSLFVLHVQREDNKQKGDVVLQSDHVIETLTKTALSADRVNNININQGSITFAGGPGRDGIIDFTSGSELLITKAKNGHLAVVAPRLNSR
UniProt Q80TP3: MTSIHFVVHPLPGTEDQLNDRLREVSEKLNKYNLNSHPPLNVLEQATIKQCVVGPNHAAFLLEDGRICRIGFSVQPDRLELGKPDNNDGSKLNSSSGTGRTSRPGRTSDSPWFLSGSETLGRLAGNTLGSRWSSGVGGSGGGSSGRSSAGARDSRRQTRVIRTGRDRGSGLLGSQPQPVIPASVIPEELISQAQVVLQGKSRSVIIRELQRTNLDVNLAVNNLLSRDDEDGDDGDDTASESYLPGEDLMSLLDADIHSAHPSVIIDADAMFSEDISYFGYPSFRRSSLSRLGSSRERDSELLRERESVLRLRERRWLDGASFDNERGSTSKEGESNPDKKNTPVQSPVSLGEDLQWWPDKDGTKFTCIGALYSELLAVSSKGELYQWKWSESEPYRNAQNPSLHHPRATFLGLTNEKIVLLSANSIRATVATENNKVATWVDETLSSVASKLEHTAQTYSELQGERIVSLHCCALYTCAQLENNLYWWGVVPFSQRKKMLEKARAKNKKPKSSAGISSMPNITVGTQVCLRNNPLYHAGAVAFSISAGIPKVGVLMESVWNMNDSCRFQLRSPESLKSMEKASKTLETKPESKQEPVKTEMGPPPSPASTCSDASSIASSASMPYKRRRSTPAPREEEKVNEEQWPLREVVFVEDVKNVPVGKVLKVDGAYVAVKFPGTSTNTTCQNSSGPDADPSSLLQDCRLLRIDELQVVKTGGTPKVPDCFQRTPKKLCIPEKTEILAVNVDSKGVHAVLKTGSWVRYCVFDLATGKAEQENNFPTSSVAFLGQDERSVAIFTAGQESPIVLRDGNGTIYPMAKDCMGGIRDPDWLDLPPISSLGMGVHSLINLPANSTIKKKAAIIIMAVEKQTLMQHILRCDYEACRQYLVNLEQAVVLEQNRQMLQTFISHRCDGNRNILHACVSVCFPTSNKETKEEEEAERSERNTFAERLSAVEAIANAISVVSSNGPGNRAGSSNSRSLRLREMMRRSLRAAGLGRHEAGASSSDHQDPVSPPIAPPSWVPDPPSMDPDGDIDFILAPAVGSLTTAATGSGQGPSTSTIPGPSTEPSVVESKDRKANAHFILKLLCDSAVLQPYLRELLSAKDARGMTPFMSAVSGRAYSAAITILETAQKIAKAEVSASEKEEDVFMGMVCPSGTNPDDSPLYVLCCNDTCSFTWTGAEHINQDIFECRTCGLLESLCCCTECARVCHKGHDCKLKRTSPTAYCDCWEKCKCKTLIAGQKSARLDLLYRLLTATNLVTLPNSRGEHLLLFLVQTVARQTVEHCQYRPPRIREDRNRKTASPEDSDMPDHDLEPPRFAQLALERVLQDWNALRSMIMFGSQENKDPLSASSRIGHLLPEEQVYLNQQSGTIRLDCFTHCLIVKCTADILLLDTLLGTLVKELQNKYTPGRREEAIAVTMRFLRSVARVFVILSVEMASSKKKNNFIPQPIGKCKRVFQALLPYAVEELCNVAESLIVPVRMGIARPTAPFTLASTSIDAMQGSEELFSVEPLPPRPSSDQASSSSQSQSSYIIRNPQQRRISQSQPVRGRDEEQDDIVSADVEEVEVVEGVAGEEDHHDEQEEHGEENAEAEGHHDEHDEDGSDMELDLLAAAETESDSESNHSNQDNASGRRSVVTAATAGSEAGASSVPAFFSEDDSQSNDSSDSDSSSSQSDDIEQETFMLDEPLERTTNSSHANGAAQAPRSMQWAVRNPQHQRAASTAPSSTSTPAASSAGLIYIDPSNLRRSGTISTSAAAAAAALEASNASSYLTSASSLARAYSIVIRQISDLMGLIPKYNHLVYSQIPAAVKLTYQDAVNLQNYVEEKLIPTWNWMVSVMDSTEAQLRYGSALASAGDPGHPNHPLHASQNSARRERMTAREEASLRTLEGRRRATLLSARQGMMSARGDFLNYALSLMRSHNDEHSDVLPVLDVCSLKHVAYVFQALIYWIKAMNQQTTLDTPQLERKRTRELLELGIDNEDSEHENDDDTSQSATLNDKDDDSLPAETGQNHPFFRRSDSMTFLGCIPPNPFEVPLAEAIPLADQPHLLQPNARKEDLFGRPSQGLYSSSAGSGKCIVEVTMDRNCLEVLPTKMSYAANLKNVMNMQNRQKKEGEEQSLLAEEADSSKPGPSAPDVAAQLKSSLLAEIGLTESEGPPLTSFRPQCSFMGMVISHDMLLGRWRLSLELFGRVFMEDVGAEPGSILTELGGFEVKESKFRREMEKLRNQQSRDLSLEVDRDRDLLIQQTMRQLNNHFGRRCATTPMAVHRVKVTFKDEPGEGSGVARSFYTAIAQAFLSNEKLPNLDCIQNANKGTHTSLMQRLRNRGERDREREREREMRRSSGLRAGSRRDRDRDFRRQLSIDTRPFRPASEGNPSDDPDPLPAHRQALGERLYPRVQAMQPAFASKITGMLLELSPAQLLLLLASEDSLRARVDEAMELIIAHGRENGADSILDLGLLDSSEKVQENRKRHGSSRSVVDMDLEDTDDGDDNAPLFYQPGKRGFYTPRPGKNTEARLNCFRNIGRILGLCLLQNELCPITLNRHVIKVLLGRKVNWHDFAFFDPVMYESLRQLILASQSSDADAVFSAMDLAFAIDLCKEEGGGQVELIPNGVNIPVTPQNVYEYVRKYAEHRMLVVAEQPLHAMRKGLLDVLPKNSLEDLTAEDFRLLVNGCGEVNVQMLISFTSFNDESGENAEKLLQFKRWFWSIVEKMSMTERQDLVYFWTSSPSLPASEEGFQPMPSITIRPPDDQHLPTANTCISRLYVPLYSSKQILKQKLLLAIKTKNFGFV

Key:
[1] = target: nuclear myosin 1c (NM1), endogenous, mouse (mouse (endogenous in MEFs)) (UniProt Q9WTI7); test: affinity purification with mass spectrometry; nuclear lysates of untreated growing GSK3β+/+ MEFs; immunoprecipitation with antibodies to NM1; SDS gel, in-gel trypsin digestion, nLC-MS/MS
[2] = target: nuclear myosin 1c (NM1), endogenous, mouse (mouse (endogenous in MEFs)) (UniProt Q9WTI7); test: condition: only cells treated with MG132 (40 µM for 3 hrs at 37°C); affinity purification with mass spectrometry; nuclear lysates of GSK3β+/+ MEFs treated with MG132 (40 µM for 3 hrs at 37°C); immunoprecipitation with antibodies to NM1; SDS gel, in-gel trypsin digestion, nLC-MS/MS

Row | Molecule | binding [1] | binding [2]
1 | E3 ligase UBR5, endogenous, mouse (from UniProt Q80TP3 1-2792) (enzyme) | binds | no binding
2 | B1 | binds | no binding

From article PMC4046919
